Patent US9655363B2, “Microbiocides” (Syngenta Participations AG, priority 2013, dated 2017)
Some results were stated once for a whole list of compounds, not compound by compound.

What was measured:
[1] = system: Pyrenophora Teres; assay: Pyrenophora teres / barley / leaf disc preventative (net blotch); type: in vivo; settings: 200 ppm, barley leaf disc cv. Hasso, compared to untreated, 5-7 days after application
[2] = system: Botryotinia Fuckeliana (Botrytis Cinerea); assay: Botryotinia fuckeliana (Botrytis cinerea) / liquid culture (gray mould); type: cell-based; settings: 200 ppm; liquid culture (Vogels broth), growth inhibition photometrically 3-4 days after application
[3] = system: Gaeumannomyces Graminis; assay: Gaeumannomyces graminis / liquid culture (take-all of cereals); type: cell-based; settings: 200 ppm; liquid culture (PDB), growth inhibition photometrically 4-5 days after application
[4] = system: Sclerotinia Sclerotiorum; assay: Sclerotinia sclerotiorum / liquid culture (white mold); type: cell-based; settings: 200 ppm; liquid culture (PDB), growth inhibition photometrically after 72 hrs at 620 nm

SMILES | disease control [1] | disease control [2] | disease control [3] | disease control [4]
OC(Cn1cncn1)(c1ccc(F)cc1)C1(c2ccc(C(F)(F)F)cn2)CC1 (stereo not shown) [Compound 13, 1-(4-fluorophenyl)-2-(1,2,4-triazol-1-yl)-1-[1-[5-(trifluoromethyl)-2-pyridyl]cyclopropyl]ethanol] | at least 80% |  |  | 
OC(Cn1cncn1)(c1ccc(F)cc1)C1(c2ccc(Br)cn2)CC1 (stereo not shown) [Compound 4, 1-[1-(5-bromo-2-pyridyl)cyclopropyl]-1-(4-fluorophenyl)-2-(1,2,4-triazol-1-yl)ethanol] | at least 80% | at least 80% |  | 
OC(Cn1cncn1)(c1ccc(Cl)cc1)C1(c2ccc(Cl)cn2)CC1 (stereo not shown) [Compound 11, 1-(4-chlorophenyl)-1-[1-(5-chloro-2-pyridyl)cyclopropyl]-2-(1,2,4-triazol-1-yl)ethanol] | at least 80% | at least 80% | at least 80% | at least 80%
N#Cc1ccc(-c2ccc(C3(C(O)(Cn4cncn4)c4ccc(F)cc4)CC3)nc2)cc1 (stereo not shown) [Compound 8, 4-[6-[1-[1-(4-fluorophenyl)-1-hydroxy-2-(1,2,4-triazol-1-yl)ethyl]cyclopropyl]-3-pyridyl]benzonitrile] |  |  | at least 80% | at least 80%
OC(Cn1cncn1)(c1ccc(F)cc1)C1(c2ccc(Cl)cn2)CC1 (stereo not shown) [Compound 14, 1-[1-(5-chloro-2-pyridyl)cyclopropyl]-1-(4-fluorophenyl)-2-(1,2,4-triazol-1-yl)ethanol] | at least 80% |  |  | 
OC(Cn1ccnc1)(c1ccc(F)cc1)C1(c2ccc(Br)cn2)CC1 (stereo not shown) [Compound 3, 1-[1-(5-bromo-2-pyridyl)cyclopropyl]-1-(4-fluorophenyl)-2-imidazol-1-yl-ethanol] | at least 80% |  |  | 
OC(Cn1cncn1)(c1ccc(F)cc1)C1(c2ncc(Br)cc2Cl)CC1 (stereo not shown) [Compound 2, 1-[1-(5-bromo-3-chloro-2-pyridyl)cyclopropyl]-1-(4-fluorophenyl)-2-(1,2,4-triazol-1-yl)ethanol] |  |  | at least 80% | at least 80%
OC(Cn1cncn1)(c1ccc(Cl)cc1)C1(c2ccccn2)CC1 (stereo not shown) [Compound 1, 1-(4-chlorophenyl)-1-[1-(2-pyridyl)cyclopropyl]-2-(1,2,4-triazol-1-yl)ethanol] |  | at least 80% | at least 80% | 
OC(Cn1cncn1)(c1ccc(F)cc1)C1(c2ccc(Br)cn2)CCC1 (stereo not shown) [Compound 17, 1-[1-(5-bromo-2-pyridyl)cyclobutyl]-1-(4-fluorophenyl)-2-(1,2,4-triazol-1-yl)ethanol] |  | at least 80% | at least 80% | 
OC(Cn1cncn1)(c1ccc(F)cc1)C1(c2ccccn2)CC1 (stereo not shown) [Compound 10, 1-(4-fluorophenyl)-1-[1-(2-pyridyl)cyclopropyl]-2-(1,2,4-triazol-1-yl)ethanol] | at least 80% |  |  | 
OC(Cn1cncn1)(c1ccc(F)cc1)C1(c2ccc(C3CC3)cn2)CC1 (stereo not shown) [Compound 7, 1-[1-(5-cyclopropyl-2-pyridyl)cyclopropyl]-1-(4-fluorophenyl)-2-(1,2,4-triazol-1-yl)ethanol] | at least 80% |  |  | 
